Values from PubChem BioAssay AID686938 (Drosophila RNAi Screening Center, 2013).
The deposit covers about 23,000 reagents; this is an unselected part of those that have a named target and a result. Of all reagents, 75 (0.33%) were called active. 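Raw plate signals without normalisation; calls rest on plate z-scores that were not deposited; ratio present for only 364 wells.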 A number with no mark means an inactive call. No sequences are given here. Not given: the dose of the treatment.

- Test: 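Looking for CRAC channel components and the factors controlling them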 (primary screen)
- Cell system: Drosophila S2R+ cells
- Reagents: long dsRNA against Drosophila genes, about 0.25 µg dsRNA per well, roughly 10,000 cells
- Duration: 5 days of knock-down before the calcium assay
- Treatment: thapsigargin (SERCA pump blocker) to empty calcium stores; entry signal taken 4 min after adding it
- Read-out: 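Per-well fluo-4 fluorescence in two replicates, unnormalised, measured in resting cells and 4 min after store depletion by the SERCA blocker thapsigargin; ratio of the two present in few wells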
- Direction: calcium entry signal: higher = stronger calcium signal after store depletion; entry to resting ratio: higher = more calcium entry relative to resting level; resting calcium signal: higher = higher resting calcium signal
- Call rule: 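Called when the plate z-score of the entry-to-rest ratio, mean of duplicates, falls below −3; wells with low overall dye signal (Fmax z below −2) or more than five off-targets excluded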
- Calls: active = strongly reduced calcium entry; inactive = no strong reduction

The opening 2 records as a preview:
no.	target gene	dsRNA	calcium entry signal, replicate 1 (fluorescence units)	calcium entry signal, replicate 2 (fluorescence units)	entry to resting ratio	resting calcium signal, replicate 1 (fluorescence units)	resting calcium signal, replicate 2 (fluorescence units)
1	mahj	DRSC04053	2.89e7			1.48e7	
2	CG14420	DRSC17917	3.34e7	5.95e7	2.1	1.57e7	2.16e7

The list itself, from the first entry:
no.	target gene	dsRNA	calcium entry signal, replicate 1 (fluorescence units)	calcium entry signal, replicate 2 (fluorescence units)	entry to resting ratio	resting calcium signal, replicate 1 (fluorescence units)	resting calcium signal, replicate 2 (fluorescence units)
1	mahj	DRSC04053	2.89e7			1.48e7	
2	CG14420	DRSC17917	3.34e7	5.95e7	2.1	1.57e7	2.16e7
3	CG5004	DRSC19929	3.48e7	3.37e7		1.83e7	1.45e7
4	CG5004	DRSC19930	4.57e7	3.30e7		2.17e7	1.36e7
5	CG5004	DRSC20123	2.92e7	3.62e7		1.69e7	1.81e7
6	SCCRO3	DRSC06359	2.39e7	3.02e7		1.28e7	1.36e7
7	Gr93d	DRSC21941	4.10e7	6.45e7		1.96e7	3.08e7
8	Jon99Ci	DRSC16860	3.55e7	6.32e7		1.89e7	2.71e7
9	CG33679	DRSC01436	4.81e7	3.17e7		2.34e7	1.47e7
10	CG13917	DRSC08386	3.16e7	3.87e7		1.54e7	1.85e7
11	CG5447	DRSC15801	3.65e7	4.19e7		1.95e7	2.02e7
12	CG4957	DRSC02793	4.04e7	5.25e7		1.76e7	2.29e7
13	CG31245	DRSC15498	3.75e7	3.86e7		6.87e7	1.73e7
14	Sym	DRSC12301	2.21e7	2.46e7		1.16e7	1.33e7
15	CG9018	DRSC08618	3.19e7	4.33e7		1.65e7	1.75e7
16	CG30423	DRSC04013	2.35e7	3.76e7		1.17e7	1.64e7
17	ctrip	DRSC12242	2.52e7	4.40e7		1.34e7	1.93e7
18	ctrip	DRSC12287	2.32e7	2.57e7		1.07e7	1.32e7
19	ctrip	DRSC22449	2.76e7	2.71e7		1.49e7	1.21e7
20	Nca	DRSC11233	3.65e7	5.32e7		1.77e7	2.32e7
21	CG11085	DRSC19374	3.16e7	3.90e7		1.51e7	1.88e7
22	CG11085	DRSC22832	2.91e7	4.37e7		1.43e7	1.99e7
23	CG12128	DRSC06104	3.95e7	3.73e7		1.79e7	1.89e7
24	CG15142	DRSC02443	5.15e7	3.27e7		2.19e7	1.74e7
